Record: PubChem BioAssay AID743454 (Peter MacCallum Cancer Centre, 2014)
Shown is a random part of about 18,000 reagents. 450 of them (2.5%) were called active. 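Single biological run; no consistent viability z cut-off exists, so the class columns, not z-scores, define the calls.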

Assay: 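Search for knock-downs that restore vorinostat killing in resistant colon cancer cells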 (primary screen)
Cells: human HCT116-VR colon cancer cells, selected for vorinostat resistance
Reagents: siRNA pool against human genes, 40 nM siRNA pool
Time to read-out: vorinostat for 24 h, read-out about 72 h after transfection
Conditions: vorinostat at 2.5 µM final
Measurement: 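Two measures, CellTiter-Fluor viability and luminescent caspase 3/7 activity, each as fold change against same-plate mock wells, mean of duplicates, then screen-wide robust z-score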
Reading the numbers: viability robust z-score: higher = more viable cells than screen typical; caspase robust z-score: higher = more caspase 3/7 activity than screen typical
Active means: 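a knock-down is a hit when classed RV1 or RV2 for lowered viability, or CA1 or CA2 for caspase activation; those lethal without drug were dropped; hits were retested singly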

gene symbol	viability hit class	caspase hit class	viability robust z-score	caspase robust z-score	Call
PKMYT1 (protein kinase, membrane associated tyrosine/threonine 1)	no change	no change	1.58	-0.2	inactive
INTS10 (integrator complex subunit 10)	no change	no change	0.62	-0.93	inactive
UBR1 (ubiquitin protein ligase E3 component n-recognin 1)	no change	no change	-0.45	0.4	inactive
ZNF782 (zinc finger protein 782)	no change	no change	1.4	-0.02	inactive
GEMIN4 (gem nuclear organelle associated protein 4)	no change	no change	-0.68	-0.42	inactive
AARSD1 (alanyl-tRNA synthetase domain containing 1)	no change	no change	-0.18	0	inactive
TNPO1 (transportin 1)	no change	no change	-1.38	2.73	inactive
PIKFYVE (phosphoinositide kinase, FYVE-type zinc finger containing)	no change	no change	-0.07	-0.45	inactive
SIN3B (SIN3 transcription regulator family member B)	no change	no change	1.56	0.78	inactive
ZNF768 (zinc finger protein 768)	no change	no change	0.48	-0.5	inactive
ZDHHC1 (zDHHC palmitoyltransferase 1)	no change	no change	0.76	0.61	inactive
LRRC63 (leucine rich repeat containing 63)	no change	no change	0.18	-0.17	inactive
L3HYPDH (trans-L-3-hydroxyproline dehydratase)	no change	no change	0.61	-0.46	inactive
TNFRSF21 (TNF receptor superfamily member 21)	no change	no change	0.05	-0.78	inactive
ZNF221 (zinc finger protein 221)	no change	no change	0.12	-0.53	inactive
MS4A6A (membrane spanning 4-domains A6A)	no change	no change	0.05	-0.78	inactive
DNAAF3 (dynein axonemal assembly factor 3)	no change	no change	-1.23	-0.34	inactive
SMU1 (SMU1 DNA replication regulator and spliceosomal factor)	no change	no change	-3.86	2.85	inactive
OR56A3 (olfactory receptor family 56 subfamily A member 3)	no change	no change	-1.62	-0.21	inactive
CIB1 (calcium and integrin binding 1)	no change	no change	-0.05	-1.25	inactive
UBE2H (ubiquitin conjugating enzyme E2 H)	no change	no change	-0.63	1.9	inactive
HAS1 (hyaluronan synthase 1)	no change	no change	-1.41	0.95	inactive
CHST2 (carbohydrate sulfotransferase 2)	no change	no change	-0.3	-0.76	inactive
STAC (SH3 and cysteine rich domain)	no change	no change	-0.04	0.07	inactive
CEP43 (centrosomal protein 43)	no change	no change	1.17	-0.89	inactive
PTGR1 (prostaglandin reductase 1)	no change	no change	-1.26	-0.14	inactive
ST18 (ST18 C2H2C-type zinc finger transcription factor)	no change	no change	0.28	-0.74	inactive
CSF1R (colony stimulating factor 1 receptor)	no change	no change	-2.57	1.29	inactive
SLC35G3	no change	no change	-1.31	-0.9	inactive
ADIPOR2 (adiponectin receptor 2)	no change	no change	0.25	0.81	inactive
RASSF6 (Ras association domain family member 6)	no change	no change	0.76	2.06	inactive
RILPL2 (Rab interacting lysosomal protein like 2)	no change	no change	-0.28	0.52	inactive
RPL23 (ribosomal protein L23)	no change	no change	-5.96	-1.02	inactive
NCOA5 (nuclear receptor coactivator 5)	no change	no change	1.85	-0.06	inactive
CFP (complement factor properdin)	no change	no change	-0.57	0.44	inactive
PCCA (propionyl-CoA carboxylase subunit alpha)	no change	no change	0.04	-0.94	inactive
SPRY3 (sprouty RTK signaling antagonist 3)	no change	no change	1.38	0.02	inactive
TXNL4B (thioredoxin like 4B)	no change	no change	0.62	-0.49	inactive
DHX35 (DEAH-box helicase 35)	no change	no change	0.14	-1.04	inactive
OR8U8 (olfactory receptor family 8 subfamily U member 8)	no change	no change	-0.36	-0.18	inactive
UMODL1 (uromodulin like 1)	no change	no change	0.42	-0.64	inactive
RHOBTB1 (Rho related BTB domain containing 1)	no change	no change	0.23	-0.44	inactive
UXS1 (UDP-glucuronate decarboxylase 1)	no change	no change	-0.3	0.93	inactive
FABP9 (fatty acid binding protein 9)	no change	no change	-1	5.11	inactive
STAB1 (stabilin 1)	no change	no change	-1.29	2.4	inactive
MARCKS (myristoylated alanine rich protein kinase C substrate)	no change	no change	0.96	0.18	inactive
SRSF8 (serine and arginine rich splicing factor 8)	no change	no change	0.23	-0.39	inactive
KDELR3 (KDEL endoplasmic reticulum protein retention receptor 3)	no change	no change	-0.28	2.66	inactive
ALG1 (ALG1 chitobiosyldiphosphodolichol beta-mannosyltransferase)	no change	no change	0.72	-0.74	inactive
OXSR1 (oxidative stress responsive kinase 1)	no change	no change	-0.11	0.74	inactive
M6PR (mannose-6-phosphate receptor, cation dependent)	no change	no change	2.12	-0.62	inactive
CYSLTR1 (cysteinyl leukotriene receptor 1)	no change	no change	0.26	0.22	inactive
HAPLN2 (hyaluronan and proteoglycan link protein 2)	no change	no change	-0.74	2.02	inactive
PIK3AP1 (phosphoinositide-3-kinase adaptor protein 1)	no change	no change	-0.64	1.06	inactive
ATP5MC2 (ATP synthase membrane subunit c locus 2)	no change	no change	-0.01	0.95	inactive
PHF12 (PHD finger protein 12)	no change	no change	-0.63	-0.55	inactive
CUZD1 (CUB and zona pellucida like domains 1)	no change	no change	0.47	-0.76	inactive

Individual results from above:
Value of LRRC63 (leucine rich repeat containing 63) in “Call”: inactive
Result of ALG1 (ALG1 chitobiosyldiphosphodolichol beta-mannosyltransferase) in “caspase hit class”: no change
For “viability robust z-score”, FABP9 (fatty acid binding protein 9) has -1
Result for RHOBTB1 (Rho related BTB domain containing 1) under “viability robust z-score”: 0.23
CFP (complement factor properdin), caspase hit class = no change
Under “Call”, CYSLTR1 (cysteinyl leukotriene receptor 1) has inactive
